Measured data: PubChem BioAssay AID1259254 (NCATS, 2017)

Purpose: 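Genome-wide screen for genes that prevent DNA re-replication in cancer cells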 (primary screen)
Cell system: human HCT116 colorectal cancer cells
Reagents: single siRNA against human genes
Timing: 3 days
Read-out: 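Imaged Hoechst DNA stain sorts each cell into a cycle phase by DNA amount; per plate, G2 fraction set to 0% for non-targeting and 100% for GMNN siRNA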
Scale: G2 robust z-score and G2 cells, % of GMNN control: higher = more G2 cells, more excess DNA replication; raw share of cells in G2: higher = larger share of cells with G2 DNA content
Active means: 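An siRNA counts as active if its G2 robust z-score lies at least 5 MADs above the screen median; here such calls match roughly 38% of GMNN control or more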
Here is one part, drawn at random, of about 59,000 reagents tested. About 1,550 of all reagents (2.6%) were called active. 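G2 share is only a proxy for re-replication; each gene was hit by three separate siRNAs, and active genes were retested.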 The raw values are shown without normalisation. Unmarked entries are inactive. Reagents against one gene are numbered here. The record does not give: the amount of reagent.

gene,reagent,G2 robust z-score,"G2 cells, % of GMNN control",raw share of cells in G2 (%)
TIMM17A (translocase of inner mitochondrial membrane 17A),1,0.215,4.48,7.36
TIMM17A (translocase of inner mitochondrial membrane 17A),2,2.48,20.5,12.5
TIMM17A (translocase of inner mitochondrial membrane 17A),3,-0.0388,2.69,4.39
AKAIN1 (A-kinase anchor inhibitor 1),1,-1.01,-4.12,2.03
AKAIN1 (A-kinase anchor inhibitor 1),2,0.353,5.45,5.48
AKAIN1 (A-kinase anchor inhibitor 1),3,-0.661,-1.68,2.55
CRLF3P1 (CRLF3 pseudogene 1),1,2.17,18.2,10.2
CRLF3P1 (CRLF3 pseudogene 1),2,-0.727,-2.15,3.1
CRLF3P1 (CRLF3 pseudogene 1),3,1.74,15.2,8.23
LOC729900 (golgin subfamily A member 6-like protein 7),1,0.0692,3.45,4.44
LOC729900 (golgin subfamily A member 6-like protein 7),2,0.766,8.35,7.38
LOC729900 (golgin subfamily A member 6-like protein 7),3,0.425,5.96,5.23
"RABL2B (RAB, member of RAS oncogene family like 2B)",1,-0.858,-3.07,5.14
"RABL2B (RAB, member of RAS oncogene family like 2B)",2,-0.249,1.22,4.56
"RABL2B (RAB, member of RAS oncogene family like 2B)",3,-0.408,0.0934,3.9
MMADHC (metabolism of cobalamin associated D),1,-0.789,-2.58,2.87
MMADHC (metabolism of cobalamin associated D),2,0.0525,3.34,5.81
MMADHC (metabolism of cobalamin associated D),3,-0.909,-3.43,2.17
BATF2 (basic leucine zipper ATF-like transcription factor 2),1,-0.42,0.0143,4.49
BATF2 (basic leucine zipper ATF-like transcription factor 2),2,-0.252,1.19,6.23
BATF2 (basic leucine zipper ATF-like transcription factor 2),3,4.49,34.6,19.8
DCAF8L1 (DDB1 and CUL4 associated factor 8 like 1),1,-0.205,1.52,4.75
DCAF8L1 (DDB1 and CUL4 associated factor 8 like 1),2,0.794,8.55,5.81
DCAF8L1 (DDB1 and CUL4 associated factor 8 like 1),3,0.75,8.24,5.57
RANBP9 (RAN binding protein 9),1,-0.162,1.83,5.89
RANBP9 (RAN binding protein 9),2,-0.601,-1.26,2.77
RANBP9 (RAN binding protein 9),3,0.633,7.42,7.76
STXBP5-AS1 (STXBP5 antisense RNA 1),1,-0.24,1.28,3.61
STXBP5-AS1 (STXBP5 antisense RNA 1),2,6.66 (active),49.8,23
STXBP5-AS1 (STXBP5 antisense RNA 1),3,1.67,14.7,8.07
"HLA-L (major histocompatibility complex, class I, L (pseudogene))",1,0.0167,3.08,4.81
"HLA-L (major histocompatibility complex, class I, L (pseudogene))",2,0.223,4.54,5.14
"HLA-L (major histocompatibility complex, class I, L (pseudogene))",3,0.118,3.8,4.41
FABP7 (fatty acid binding protein 7),1,1.29,12,9.6
FABP7 (fatty acid binding protein 7),2,-0.758,-2.37,4.36
FABP7 (fatty acid binding protein 7),3,-0.289,0.936,3.99
MRPS31 (mitochondrial ribosomal protein S31),1,-0.468,-0.325,5.18
MRPS31 (mitochondrial ribosomal protein S31),2,-0.402,0.138,4
MRPS31 (mitochondrial ribosomal protein S31),3,2.59,21.2,11.1
TRABD (TraB domain containing),1,-0.594,-1.21,3.94
TRABD (TraB domain containing),2,3.24,25.8,15.6
TRABD (TraB domain containing),3,1.5,13.5,6.08
SDCBP2 (syndecan binding protein 2),1,-0.272,1.05,4.26
SDCBP2 (syndecan binding protein 2),2,-1.08,-4.63,2.8
SDCBP2 (syndecan binding protein 2),3,-0.022,2.81,4.14
TAF8 (TATA-box binding protein associated factor 8),1,-0.449,-0.19,4.1
TAF8 (TATA-box binding protein associated factor 8),2,0.736,8.14,5.68
TAF8 (TATA-box binding protein associated factor 8),3,0.323,5.24,4.48
SLC25A32,1,-0.303,0.838,5.78
SLC25A32,2,-0.768,-2.44,3.31
SLC25A32,3,-0.81,-2.73,3.78
C3orf18 (chromosome 3 open reading frame 18),1,0.461,6.21,6.23
C3orf18 (chromosome 3 open reading frame 18),2,-1.21,-5.53,2.46
C3orf18 (chromosome 3 open reading frame 18),3,2.46,20.3,9.65
CXCR6 (C-X-C motif chemokine receptor 6),1,-0.23,1.35,6.32
CXCR6 (C-X-C motif chemokine receptor 6),2,-0.334,0.617,4.73
CXCR6 (C-X-C motif chemokine receptor 6),3,1.49,13.5,7.39
"RFTN1 (raftlin, lipid raft linker 1)",1,2.53,20.7,13.1
"RFTN1 (raftlin, lipid raft linker 1)",2,-0.552,-0.914,3.76
"RFTN1 (raftlin, lipid raft linker 1)",3,-1.25,-5.81,1
ZIM3 (zinc finger imprinted 3),1,-0.0922,2.32,3.89
ZIM3 (zinc finger imprinted 3),2,-0.781,-2.53,2.29
ZIM3 (zinc finger imprinted 3),3,0.157,4.07,4.95
SEC61A2 (SEC61 translocon subunit alpha 2),1,0.99,9.93,8.34
SEC61A2 (SEC61 translocon subunit alpha 2),2,-0.25,1.21,4.64
SEC61A2 (SEC61 translocon subunit alpha 2),3,-0.329,0.65,3.34
KIR2DL5B,1,0.0596,3.39,7.37
KIR2DL5B,2,-0.456,-0.244,4.86
KIR2DL5B,3,2.6,21.3,12.1

Part of the list above, set out differently:
gene | reagent | G2 robust z-score | G2 cells, % of GMNN control | raw share of cells in G2 (%)
TIMM17A (translocase of inner mitochondrial membrane 17A) | 1 | 0.215 | 4.48 | 7.36
TIMM17A (translocase of inner mitochondrial membrane 17A) | 2 | 2.48 | 20.5 | 12.5
TIMM17A (translocase of inner mitochondrial membrane 17A) | 3 | -0.0388 | 2.69 | 4.39
AKAIN1 (A-kinase anchor inhibitor 1) | 1 | -1.01 | -4.12 | 2.03
AKAIN1 (A-kinase anchor inhibitor 1) | 2 | 0.353 | 5.45 | 5.48
AKAIN1 (A-kinase anchor inhibitor 1) | 3 | -0.661 | -1.68 | 2.55
CRLF3P1 (CRLF3 pseudogene 1) | 1 | 2.17 | 18.2 | 10.2
CRLF3P1 (CRLF3 pseudogene 1) | 2 | -0.727 | -2.15 | 3.1
